Test results: publication PMC11459619, “Evaluating the amoeba thioredoxin reductase selenoprotein as potential drug target for treatment of Acanthamoeba infections” (International Journal for Parasitology: Drugs and Drug …, 2024)

Test system: human corneal epithelial cells (HCECs)
Assay: Cytotoxicity test on human corneal epithelial cells (CellTiter 96 AQueous One)
Format: cell-based
Settings: ratio of TD50 (HCEC) to IC50 (Neff trophozoites)
Procedure: Cytotoxicity of the compounds towards human corneal epithelial cells (HCECs) (Innoprot, ref. P10871) was determined ([Loufouma Mbouaka et al., 2023]) in 96-well microplates. The HCECs (1 × 10^4 cells/well) were grown in 100 μL of corneal epithelial cell medium (CEpiCM) (Innoprot, ref. P60131) supplemented with 1% of corneal epithelial cell growth supplement (CEpiCGS), 2% of fetal bovine serum (FBS) and 1% antibiotic mix: 10,000 U penicillin, 10 mg streptomycin and 25 μg amphotericin B per milliliter. After overnight incubation, cytotoxicity was evaluated adding 20 μL of CellTiter 96® AQueous One Solution Reagent (Promega, Madison, WI, USA). After 1 h of incubation at 37 °C, the absorbance at 490 nm was read using a spectrophotometer (Tecan, Spark 10M, Switzerland).
The TD50 values were calculated using the same method as the IC50 values with GraphPad Prism. Moreover, the therapeutic index was determined as the ratio of TD50 to IC50 ([Muller and Milton, 2012]).

| SMILES | Therapeutic index (TI) 24 h | Therapeutic index (TI) 48 h | Therapeutic index (TI) 72 h |
| --- | --- | --- | --- |
| COc1ccc([N+](=O)[O-])c(S(=O)(=O)c2ccc(Cl)cc2)n1 [TRi-1] | 0.5 | 1.10 | 1.96 |
| CC(=O)OC[C@H]1O[C@@H]([S-])[C@H](OC(C)=O)[C@@H](OC(C)=O)[C@@H]1OC(C)=O.CCP(CC)CC.[Au+] [Auranofin, auranofin] | 0.02 | 0.056 | 0.17 |
